Experimental data published in patent publication US20080003127A1, “Non-Ferrous Metal Cover Gases” (Honeywell International Inc., priority 2006, published 2008).

Experiments:
[1] = Global Warming Potential (GWP); settings: 100 year time horizon, relative to CO2

| Compound | GWP (100 Yr) [1] | Atmospheric Lifetime (Yr) (Atmospheric lifetime) |
| --- | --- | --- |
| O=C(C(F)(F)C(F)(F)F)C(F)(C(F)(F)F)C(F)(F)F [C2F5C(O)CF(CF3)2] | 10 | 0.1 Yr |
| FC(F)(F)C(F)(F)F [C2F6] | 11,400 | 10,000 Yr |
| O=C=O [CO2, carbon dioxide] | 1 | 100-150 Yr |
| FCC(F)(F)F [HFC-134a, 1,1,1,2-tetrafluoroethane] | 1600 | 13.6 Yr |
| CC(F)F [HFC-152a, difluoroethane] | 140 | 1.5 Yr |
| C=C(Cl)C(F)(F)F [HFCO-1233xf, 1,1,1-trifluoro-2-chloro-propene] | <20 | <0.1 Yr |
| C=C(F)C(F)(F)F [HFO-1234yf, 1,1,1,2-tetrafluoropropene] | 4 | 0.04 Yr |
| FN(F)F [NF3, nitrogen trifluoride] | 10,800 | 740 Yr |
| FS(F)(F)(F)(F)F [SF6, sulfurhexafluoride] | 23,900 | 3,200 Yr |
| O=S(=O)(F)F [SO2F2, sulfuryl fluoride] | 0.1 | dissipates quickly |
| FC(F)(F)/C=C\Cl [cis-HFCO-1233zd, cis-1,1,1-trifluoro-3-chloro-propene] | <20 | <0.1 Yr |
| F/C=C(\F)C(F)F [cis-HFO-1234ye] | <15 | <0.1 Yr |
| FC(F)(F)/C=C/Cl [trans-HFCO-1233zd, trans-1,1,1-trifluoro-3-chloro-propene] | <20 | <0.1 Yr |
| F/C=C/C(F)(F)F [trans-HFO-1234ze, trans-1,3,3,3-tetrafluoropropene] | 6 | 0.05 Yr |
| methoxy-nonafluorobutane [HFE-7100] | 320 | 4.1 Yr |
